Measured values from article doi:10.1101/2022.05.09.490802.

Tested on: Iron-responsive protein (IRP)
Experiment: EMSA

Sequence	binding result (tRNA present, competed by 1 uM unlabeled IRE RNA)	binding result
UCCUGCUUCAACAGUGCUUGGACGGAAC [IRE RNA 28-mer]	binds	–
GACGCTGCCGAATTCTACCAGTGCCTTGCTAGGACATCTTTGCCCACCTGCAGGTTCACCC [60-mer ssDNA (EMSA1)]	–	no binding

Read-outs that look alike come from different tables or passages of the source. For at least one entry, the source does not settle the construct or the ends of the probe. Negatives hold for the conditions tested. At least one verdict rests on a figure or table, not on a statement of the authors.
